In patent publication US20110056516A1, “PROCESS FOR SURFACE TREATMENT OF METALS” (priority 2007, published 2011):

Assays:
[1] = 304 SS, 150° F., 5 minutes pickle; H2SO4 10%, Modified H2SO4 16%
[2] = HRS, 150° F., 5 minutes pickle; H2SO4 10%, Modified H2SO4 16%

In the case of `O=S(=O)(O)O` [H2SO4, sulfuric acid], the Etch [1] was 0.739 gm/ft^2 and 0.814 gm/ft^2 and the Etch [2] was 2.369 gm/ft^2 and 2.424 gm/ft^2.

Where “and” joins values, the source holds several entries; their conditions need not be identical. Equal values may be shown once. Read-outs that look alike come from different tables or passages of the source.
